The supplement of paper PMC3334620
In all, about 33,000 sequences were measured (“E-score (-0.5 to 0.5)”: median about -0.0034, highest 2% from about 0.25 on). The list shows a part of the results.

molecular target: T1, Yap3 (UniProt P38749); experiment: PBM E-score (8-mer binding enrichment) (E-score (-0.5 to 0.5)); higher = stronger / more preferred TF binding; conditions: protein concentration: 100 nM; construct: GST-full length
T1 sequence: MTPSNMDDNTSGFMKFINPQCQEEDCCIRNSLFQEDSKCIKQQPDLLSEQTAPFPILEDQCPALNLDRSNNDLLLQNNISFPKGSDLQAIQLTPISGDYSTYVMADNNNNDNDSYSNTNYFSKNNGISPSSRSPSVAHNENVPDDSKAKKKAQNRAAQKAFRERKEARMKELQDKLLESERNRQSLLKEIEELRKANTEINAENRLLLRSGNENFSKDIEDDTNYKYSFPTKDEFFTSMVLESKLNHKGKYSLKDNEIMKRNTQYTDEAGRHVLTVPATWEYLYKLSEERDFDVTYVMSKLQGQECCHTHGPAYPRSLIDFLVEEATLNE
How it was run: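 Masliner-normalised scans of fluorescent anti-GST signal were the basis for scoring. That signal came from GST-tagged yeast transcription factors applied at about 100-200 nM to double-stranded universal all-10-mer Agilent arrays on fresh or once-stripped slides. Each ungapped eight-base word, pooled with its reverse complement, received an E-score from the Universal PBM Analysis Suite.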

Sequence	PBM E-score
CTAACCTA	0.0526
GAATCGAC	0.062
GAGACTGA	-0.0536
AATTACCA	0.256
ATTATGTC	0.198
AAGCTTCC	-0.146
GGGCAGGA	-0.0798
GCTCACCA	-0.113
TGTAGCAA	-0.0221
CTGTAGCC	-0.092
AAGTTTCC	-0.0578
TTGCGAAA	0.114
GGAGTGCA	0.213
AAGCAAGC	-0.0393
GTAAATAC	0.0284
AGTGAGCG	0.057
AATGTGCA	0.124
GAAAAGTA	0.206
AGCATGGG	-0.211
GAATGAGA	0.102
AAAGAATC	0.0505
GATCTGCC	0.0312
ATACGATC	0.139
CCGTTCCC	-0.0607
GAGCAGCA	-0.0592

Sequence	PBM E-score
ACAGCAAT	0.141
CTAGAGGA	-0.169
GTAGTCAC	-0.175
AGAGCTAG	-0.128
GCCTGCAA	-0.0828
AGTGTAGC	-0.0538
CGCTACTC	-0.112
ACTTCGAT	0.166
AAGGGGTG	-0.233
GACAATCA	0.0761
CTTAAACC	-0.0643
GGCCCACA	-0.119
GGACCACC	-0.11
CACGTGGC	-0.2
CCTGTTTA	0.121
CGAGTAAG	0.121
CCTCGCGA	0.00623
AGGCGGTC	-0.233
CGATGAAC	-0.152
ACAAGTGG	-0.0491
ATCCGTAC	0.18
ACATGCAA	0.0301
CTAACGGA	0.249
GGAACATA	0.00432
AACAAATT	0.237

Part of the list above, bar-delimited.
Sequence | PBM E-score
CCGTTCCC | -0.0607
GAGCAGCA | -0.0592
ACAGCAAT | 0.141
CTAGAGGA | -0.169
GTAGTCAC | -0.175

Continuation.

Sequence	PBM E-score
CTTTCTTC	-0.00069
CGATGTAG	-0.0655
AGGATACG	-0.156
AGAAATAC	0.00533
GCGATGAA	0.0736
CTTCAAAC	-0.0241
AGCTAGTA	0.0754
GAGGAGGC	-0.226
AACACGGT	0.0201
CTGAAACA	-0.0435
ATGGTAGA	0.0392
AGTATTTA	0.16
AGCTAGCT	0.038
CGCTTACC	0.0145
GCCACATA	0.105
ACAATGTG	0.114
GTTTGAAA	0.176
ACATGCGT	0.00122
CCTTAACG	-0.0199
AAATGCGG	0.00294
CACCACCA	-0.0998
AGATCTTA	0.0758
GCGCATTA	0.0888
CCGACGGC	-0.0688
CGTGATGC	0.0658

Sequence	PBM E-score
CGGGATGC	-0.2
GTTACTCA	0.161
CTTGCGCA	0.148
GATGTGTA	0.067
CCATTGGA	-0.134
CGACGGAC	0.0195
AAAATGAA	0.208
CTTTGCGC	0.0871
CATTTCGC	0.0891
ATCAAGCG	-0.032
AAGATTTC	0.163
ACCATTTG	-0.0787
ATCATCTG	-0.0395
GAACTAAA	0.0567
AGCTTGAA	-0.0302
TCAGACCA	0.0975
GCGATTAA	0.216
CAGTCCCG	-0.356
CGTGTCAA	-0.212
CGTGCTAG	-0.177
GAGGCGTA	0.035
AACTATAT	0.309
AGTAGCTG	-0.0134
CGCGACAC	0.111
GGACAGAC	-0.191

Sequence	PBM E-score
ATAGGCGG	0.109
GTTTGGAA	0.0622
CGCTTCCA	-0.0828
ATTTTACC	0.297
ACTTCTCA	0.00447
GACAGTGC	-0.0249
CGTGAGCA	-0.173
CAATACCG	-0.0587
CGAGGAAG	-0.122
GAAGGATC	-0.144
ACCACGTA	-0.19
AGTGCGTA	-0.0734
CCTTATGA	0.113
CAAGTTAC	0.108
GGAGCGCA	-0.261
CCTTTCAG	-0.198
AATGTCTA	0.0499
TTGCAAAA	0.237
GGAGATCC	-0.211
CAAGCAAG	-0.169
AATGTTAA	0.0558
ACTGCGAT	0.0212
AGACCGCA	-0.099
CACCGACC	-0.105
AGAGTTCA	-0.155

Sequence	PBM E-score
CATTTGGA	-0.0842
CTAAGTTC	-0.18
AACATATA	0.23
AGGGCTGG	-0.175
GACCCGTC	-0.326
CGGGGGGA	-0.42
CATTTCCG	0.228
ACCCCACA	-0.00151
AAGGGTGC	0.00681
TAGTCTCA	-0.034
CTCGGAGC	-0.147
AACCTACT	0.16
CAAAAAGA	0.0468
CGTTAGGC	-0.174
CTACGACA	0.0833
CCCGCCAG	-0.0733
ACCCAGAG	0.0143
CCTGGCAA	0.012
GGCCTCGA	-0.0664
AGCTCCAA	0.124
GCTTCCCC	-0.346
ATCAACCC	0.0349
AGGCGCGA	-0.00335
TCAAGGGA	-0.103
ATTACCGC	0.183

Sequence	PBM E-score
GTCACTAA	0.195
AATTCACA	0.238
GACGGGGC	-0.148
CAACGTTA	0.204
CTACACAC	0.072
CCCGTAGC	-0.142
AATAAGCG	0.0778
CGTGCAGC	-0.165
ATAATGGA	0.188
GGCAAGTA	0.0706
AATAAAAC	0.315
GTCAGAAA	-0.0404
ACACAACC	0.144
CATGATTC	0.0254
ATACTATG	0.162
ACATGCTG	-0.0157
GGGGGCCA	-0.363
ACCCATTC	0.0556
CCTAGGCG	-0.136
TTACTAAA	0.401
GTATTCCA	0.122
CGAAGTGC	0.0539
CATGTCCG	-0.255
AGCGCTAG	0.0967
CTACCTCA	-0.0133

3 entries drawn at random from the list so far:
Sequence	PBM E-score
ACCCATTC	0.0556
GGGGGCCA	-0.363
CCCGTAGC	-0.142

Additional entries

Sequence	PBM E-score
ACGCAAGG	0.0117
AGACCGGG	-0.146
CTCGAATC	-0.101
CCCGGGCA	-0.358
CACACGCG	0.0812
CCTTCAGA	-0.195
CCGGACGA	-0.0258
ATAACAGA	0.154
AACAAAAC	0.239
ACCGACTG	-0.0519
TACCGGCA	0.015
CACCGGTC	-0.344
AGGGTTGA	-0.0924
AAATCCTT	-0.0476
CAGTAGGA	-0.183
GAGTCCCA	-0.0964
ATTACGAC	0.269
AAACTTAA	0.23
CCCGTTCC	-0.126
AGTTAGGG	0.0307
AGAAGTCT	-0.101
ATGTTAGG	0.0887
AATCTTCC	-0.0614
GAGATTCC	0.0624
ACACAAGA	0.1

Sequence	PBM E-score
AGAACACC	0.00243
CACAAACA	0.0814
CTACATTA	0.11
ATCTAATG	0.0125
CCATTAGA	-0.187
CCGGTCGC	-0.238
CCTGAAAA	-0.0139
ATAGTGAT	0.0481
GCCCAGAC	-0.326
GTGTACGA	0.0182
ACAAGCAC	-0.0521
AAAAAGTG	0.128
ATCTTTCA	0.207
AGTCTTGC	-0.0169
AGTCCAAC	-0.148
GGGGTTCA	-0.103
AGATTTGA	0.168
GCGCCCTA	-0.235
AATAAGTA	0.215
ACTAGGAG	-0.18
AGAAGCGC	0.105
AATTGAAG	-0.0722
TAGAAAGA	0.0423
AATAGGAG	-0.242
GACGCAGC	-0.161

Sequence	PBM E-score
AAGTGTAG	0.0222
CGGTCCGA	-0.192
ACTCTTAC	0.183
CATTTATA	0.215
CGACACTA	0.129
AGAACAAC	0.0478
GCCGTGGA	-0.21
CATACCCA	0.0979
AGGGGACG	-0.124
AAGCCCTT	-0.18
CTGGTTCA	-0.105
CGGCCGAA	0.0933
GAGAGAGC	-0.194
CGGTGGAG	-0.217
CTCAAGCC	-0.145
GACGGACA	0.0978
GGGATCAA	0.0188
AGCCTTAT	0.0323
CCTCCCAG	-0.2
CACAACGC	0.0619
AAGTAATT	0.222
AGGCCGTG	-0.0817
ATTATTTC	0.302
AGCATACA	0.112
GTTTCGGA	-0.011

Sequence	PBM E-score
GGTAGCAC	-0.238
AGTAGCTA	0.136
CTATCCAG	0.00631
GAATGCGA	-0.00713
CACGCGCA	-0.0822
AATAGCTG	-0.054
CCTCCGCC	-0.223
GGTGGGAA	0.0383
ATTTCAAA	0.204
GGGACCCA	-0.241
ACCCTCAA	-0.0948
ATATCAGG	-0.0437
AATTTCCG	0.237
ATCCTTGA	0.0288
CGAGATGC	-0.0804
TGAAACCA	0.131
TACTGTAA	0.175
CGCCATGA	0.077
ATTGTCTC	0.137
ACGACTGA	-0.04
CTATAGTA	0.156
AGTAGGCG	-0.0582
CAACTCGA	0.0838
AGAATATC	0.165
ACGAACGA	0.0402

Sequence	PBM E-score
ACTGCCAA	0.101
AGTTGATC	0.0597
AGGAGAAT	-0.0293
GCAACGAA	0.247
ATCTAAAC	-0.111
AACCCCTG	-0.246
TTCGCAAA	0.198
AAGGTCTC	-0.0989
CGTCATGC	0.0266
ATCAATGG	0.0648
CCGATAGG	-0.0315
AACTGAGC	-0.185
AGACGTGA	0.143
GTTTGTGA	0.0699
AGACATGG	0.0779
CATGCGCC	0.0574
AATTGCAA	0.183
CCCAGCGC	-0.145
ATGACGTC	0.221
AATTGATG	0.215
AGTTCATG	0.18
CAATCAGC	-0.059
AACAGGTT	0.0368
ATATTGAT	0.205
AATCCCAA	0.0459

A second format for part of the listing above.
Sequence,PBM E-score
ATCTAAAC,-0.111
AACTGAGC,-0.185

(next part)

Sequence	PBM E-score
ATCAAACA	0.192
TATTACGA	0.326
CCTCGTTC	-0.0985
ACTGGCAT	-0.151
CAATTATG	0.214
ACGCATAT	0.175
CACACCTA	-0.0208
CGGGGCCA	-0.285
ATTAGACA	-0.021
ACGGAGAT	-0.0531
AGCCGATG	-0.0561
AAATTAAC	0.136
AGGTACTG	-0.112
GGGACCAC	-0.126
TTTCGAAA	0.071
ACCGAATC	-0.00408
CTGCCACC	-0.272
ACAAGCGC	0.0537
CTGTTCTA	0.0132
CTCGGAAC	-0.116
ATCGTGTA	-0.00618
ACGCATAG	0.0069
TGTAGACA	0.101
CGGCTCAG	-0.0325
CATGATAA	0.255

Sequence	PBM E-score
CAGTCGCA	-0.256
GCATGTCC	-0.162
ACGCATCT	0.106
AGCGCGGC	0.0106
CGGGTAAA	0.163
CCCGGGTC	-0.195
GATCTGAC	0.00948
CGATTAAA	0.191
ATTTGGTA	0.235
CTACTCTA	0.148
AAGTGGTA	0.0357
ATTTTTGA	0.15
ACCGAGGG	-0.332
AGGGCTCG	-0.228
AAGAAATG	0.137
CCTCACCA	-0.0697
ATATGCAA	0.073
ATATTATG	0.399
GTCGCTAA	-0.00825
